Values from PubChem BioAssay AID504764 (Drosophila RNAi Screening Center, 2011).

Aim: 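Genes whose knock-down alters Notch-dependent transcription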 (primary screen)
Cells: Drosophila Kc167 cells
Reagents: long dsRNA against Drosophila genes
Duration: about 5 days (4 days dsRNA, then 24 h after transfection)
Treatment: transfection of constitutively active membrane-tethered Notch lacking the extracellular domain, read 24 h later
Detection: 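Light from a Notch-responsive E(spl)m3 luciferase reporter under active Notch, with control-promoter and no-Notch reporter wells to normalise; raw counts from paired wells a and b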
Reading the numbers: induced reporter light, run 1, well a and induced reporter light, run 1, well b: higher = more light from the Notch target reporter with active Notch; control promoter light, run 1, well a and control promoter light, run 1, well b: higher = more light from the viral control promoter (cell number, transfection, viability); uninduced reporter light, run 1, well a: higher = more light from the Notch target reporter without active Notch
Hit rule: 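Wells with low control signal or poorly matching duplicates excluded; duplicates averaged; per source plate, z beyond ±2 for induced/control log2 ratio or beyond ±1.8 for induced/uninduced marks a hit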
Calls: active = modifier hit (raised or lowered Notch signal); inactive = not a hit
The screen tested about 22,000 reagents; this is a random part of those that have a named target and a result. In the full data, 403 (1.9%) were called active. 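Unnormalised raw counts per well; ratio z-scores behind the hit calls and whether each hit raises or lowers signal are not deposited.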 The numbers tell different reagents against one gene apart. Not given: the amount of reagent.

For CG5026, the entry reads induced reporter light, run 1, well a = 1.05e5; induced reporter light, run 1, well b = 98475; control promoter light, run 1, well a = 71935; control promoter light, run 1, well b = 30285; uninduced reporter light, run 1, well a = 6365; inactive.
Dph1 showed induced reporter light, run 1, well a = 98085; induced reporter light, run 1, well b = 1.10e5; control promoter light, run 1, well a = 75440; control promoter light, run 1, well b = 26870; uninduced reporter light, run 1, well a = 8720; inactive.
Against Kua the deposit lists induced reporter light, run 1, well a = 62510; induced reporter light, run 1, well b = 47230; control promoter light, run 1, well a = 46000; control promoter light, run 1, well b = 47405; uninduced reporter light, run 1, well a = 3095; inactive.
Silencing of CG14565 resulted in: induced reporter light, run 1, well a = 1.42e5; induced reporter light, run 1, well b = 1.25e5; control promoter light, run 1, well a = 1.29e5; control promoter light, run 1, well b = 1.25e5; uninduced reporter light, run 1, well a = 10380; inactive.
Silencing of CG13454 came out at: induced reporter light, run 1, well a = 1.74e5; induced reporter light, run 1, well b = 1.88e5; control promoter light, run 1, well a = 2.64e5; control promoter light, run 1, well b = 2.29e5; uninduced reporter light, run 1, well a = 14310; inactive.
Silencing of CG13912 gave: induced reporter light, run 1, well a = 1.38e5; induced reporter light, run 1, well b = 1.08e5; control promoter light, run 1, well a = 1.97e5; control promoter light, run 1, well b = 2.46e5; uninduced reporter light, run 1, well a = 5985; inactive.
Ncoa6 scored induced reporter light, run 1, well a = 8290; induced reporter light, run 1, well b = 8178; control promoter light, run 1, well a = 8790; control promoter light, run 1, well b = 9960; uninduced reporter light, run 1, well a = 2575; inactive.
CG32816 gave induced reporter light, run 1, well a = 51420; induced reporter light, run 1, well b = 68420; control promoter light, run 1, well a = 82455; control promoter light, run 1, well b = 83365; uninduced reporter light, run 1, well a = 5530; inactive.
For CG13323, the entry reads induced reporter light, run 1, well a = 1.38e5; induced reporter light, run 1, well b = 1.25e5; control promoter light, run 1, well a = 1.32e5; control promoter light, run 1, well b = 1.11e5; uninduced reporter light, run 1, well a = 13355; active.
smog #1 scored induced reporter light, run 1, well a = 1.38e5; induced reporter light, run 1, well b = 1.27e5; control promoter light, run 1, well a = 1.13e5; control promoter light, run 1, well b = 84645; uninduced reporter light, run 1, well a = 7070; active.
With knock-down of smog #2 the results were induced reporter light, run 1, well a = 8915; induced reporter light, run 1, well b = 7165; control promoter light, run 1, well a = 8805; control promoter light, run 1, well b = 7410; uninduced reporter light, run 1, well a = 3820; inactive.
Against dan, the values are induced reporter light, run 1, well a = 17470; induced reporter light, run 1, well b = 12700; control promoter light, run 1, well a = 15985; control promoter light, run 1, well b = 22642; uninduced reporter light, run 1, well a = 1530; inactive.
